Patent publication US20190367589A1

Molecular target: mouse Jagged 1 (mouse)
Assay: ELISA as for the other curves; sheet and legend say mouse Jagged 1, the method lists rat Jagged 1-Fc as the coated protein

B1: anti-Jagged 13 IgG (antibody, V domains shown)
VH: EVQLLESGGGLVQPGGSLRLSCAASGFTFSSYAMSWVRQAPGKGLEWVSSIETQGPTTLYADSVKGRFTISRDNSKNTLYLQMNSLRAEDTAVYYCAKTSSAFDYWGQGTLVTVSS
VL: DIQMTQSPSSLSASVGDRVTITCRASQSISSYLNWYQQKPGKAPKLLIYASSLQSGVPSRFSGSGSGTDFTLTIGSLQPEDFATYYCQQNVATPLTFGQGTKVEIKR
In the case of B1, the binding is reported as “binds”.

B2: anti-Jagged 32 IgG (antibody, V domains shown)
VH: B1 VH with T53Q, Q54M, P56W, T57Q, L59Y, T99S, S100A, S101A
VL: B1 VL with S51A, G75S, N90T, A92V, T93A
B2 was tested, and the binding was “binds”.

Changes are numbered by the printed parent chain. These are yes or no findings as the source states them, for the method shown. Binding can be weak; no strength is given.
